Test results as given in paper PMC12284064.
Results are given in words; binding and its absence hold for the method and conditions named. In cells and extracts the contact can be indirect. A yes stands for co-enrichment or nearness to the bait. Other partners may have been found.

Sequences of proteins named here, by UniProt entry; tags and fusion partners are left off.
UniProt Q9BPZ7: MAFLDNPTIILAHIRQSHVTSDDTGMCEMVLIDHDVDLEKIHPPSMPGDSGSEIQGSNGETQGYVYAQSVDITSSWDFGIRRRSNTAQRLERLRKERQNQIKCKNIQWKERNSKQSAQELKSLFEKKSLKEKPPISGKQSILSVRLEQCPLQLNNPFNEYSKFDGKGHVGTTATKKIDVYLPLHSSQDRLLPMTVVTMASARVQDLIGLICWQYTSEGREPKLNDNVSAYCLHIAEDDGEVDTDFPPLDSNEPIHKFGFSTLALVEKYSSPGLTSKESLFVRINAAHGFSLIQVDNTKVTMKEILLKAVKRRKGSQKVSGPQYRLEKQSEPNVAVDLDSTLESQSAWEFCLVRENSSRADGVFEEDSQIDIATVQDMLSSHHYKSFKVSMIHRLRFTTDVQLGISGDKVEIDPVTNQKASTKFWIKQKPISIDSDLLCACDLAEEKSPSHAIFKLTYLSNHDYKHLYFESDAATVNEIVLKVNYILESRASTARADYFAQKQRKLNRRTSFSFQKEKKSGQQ

Molecular target: Flag-S-SIN1 (UniProt Q9BPZ7)
Experiment: affinity purification with mass spectrometry; tandem affinity purification (anti-Flag affinity gel, 3xFlag peptide elution, then S-protein agarose) from PANC-1 cells expressing Flag-S-SIN1 or Flag-S-USP33; MG132 10 uM 10 h; NETN buffer pH 8.0, 300 mM NaCl, 0.5% NP-40; LC-MS/MS

- binding: binds
B1: ubiquitin-specific protease 33 (USP33), endogenous (enzyme, UniProt Q8TEY7 1-942)
chain: MTGSNSHITILTLKVLPHFESLGKQEKIPNKMSAFRNHCPHLDSVGEITKEDLIQKSLGTCQDCKVQGPNLWACLENRCSYVGCGESQVDHSTIHSQETKHYLTVNLTTLRVWCYACSKEVFLDRKLGTQPSLPHVRQPHQIQENSVQDFKIPSNTTLKTPLVAVFDDLDIEADEEDELRARGLTGLKNIGNTCYMNAALQALSNCPPLTQFFLDCGGLARTDKKPAICKSYLKLMTELWHKSRPGSVVPTTLFQGIKTVNPTFRGYSQQDAQEFLRCLMDLLHEELKEQVMEVEEDPQTITTEETMEEDKSQSDVDFQSCESCSNSDRAENENGSRCFSEDNNETTMLIQDDENNSEMSKDWQKEKMCNKINKVNSEGEFDKDRDSISETVDLNNQETVKVQIHSRASEYITDVHSNDLSTPQILPSNEGVNPRLSASPPKSGNLWPGLAPPHKKAQSASPKRKKQHKKYRSVISDIFDGTIISSVQCLTCDRVSVTLETFQDLSLPIPGKEDLAKLHSSSHPTSIVKAGSCGEAYAPQGWIAFFMEYVKRFVVSCVPSWFWGPVVTLQDCLAAFFARDELKGDNMYSCEKCKKLRNGVKFCKVQNFPEILCIHLKRFRHELMFSTKISTHVSFPLEGLDLQPFLAKDSPAQIVTYDLLSVICHHGTASSGHYIAYCRNNLNNLWYEFDDQSVTEVSESTVQNAEAYVLFYRKSSEEAQKERRRISNLLNIMEPSLLQFYISRQWLNKFKTFAEPGPISNNDFLCIHGGVPPRKAGYIEDLVLMLPQNIWDNLYSRYGGGPAVNHLYICHTCQIEAEKIEKRRKTELEIFIRLNRAFQKEDSPATFYCISMQWFREWESFVKGKDGDPPGPIDNTKIAVTKCGNVMLRQGADSGQISEETWNFLQSIYGGGPEVILRPPVVHVDPDILQAEEKIEVETRSL
